This is one part of the list. This data set is noisy: repeats of one test often differ as much as different tests do.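 Free-swimming zebrafish larvae were scored for O-bend response probability to dark flashes (naive: first five; training: remaining flashes of four 60-flash blocks; test: later 60-flash block) and for turning toward alternating leftward/rightward LED motion (OMR). Six treated larvae were compared with sixty 0.1% DMSO controls; |SSMD|≥2 defined a hit.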

For one assay, the system named is Danio rerio larvae (5 dpf, TLF). Briefly: Prob-Test (SSMD vs DMSO vehicle); higher = higher than vehicle (e.g. higher dark-flash O-bend response probability, or better optomotor performance). Conditions: 10 µM; pre-incubation: 30-90 min.
As to `Nc1ccn([C@@H]2CS[C@H](CO)O2)c(=O)n1` [Lamivudine], the Prob-Test was 0.189.
`O=C(O)CCCc1c[nH]c2ccccc12` [3-Indolebutyric acid (IBA)]: the Prob-Test was 0.373.
Turning to `CC(C)(C(=O)O)c1ccc(C(O)CCCN2CCC(C(O)(c3ccccc3)c3ccccc3)CC2)cc1.Cl` (stereo not given) [Fexofenadine HCl], the Prob-Test was -0.876.
Turning to `CN(C)CC/C=C1\c2ccccc2Sc2ccc(Cl)cc21` [Chlorprothixene], the Prob-Test was -0.645.
In the case of `[I-].[K+]` [Potassium Iodide], the Prob-Test amounted to 0.119.
Same read-out and setting: the value for `CN1CCCC1c1cccnc1.O=C(O)C(O)C(O)C(=O)O.O=C(O)C(O)C(O)C(=O)O` (stereo not given) [Nicotine Ditartrate] was 0.572.
As for `CN(C)c1cc(NC(=O)CNC(C)(C)C)c(O)c2c1C[C@H]1C[C@H]3[C@@H](N(C)C)C(O)=C(C(N)=O)C(=O)[C@@]3(O)C(O)=C1C2=O` [Tigecycline], the Prob-Test is 0.153.
On the same count and under the same terms, the value for `CC(c1cc2ccccc2s1)N(O)C(N)=O` (stereo not given) [Zileuton] was -0.408; that for `Cc1nc2n(c(=O)c1CCN1CCC(c3noc4cc(F)ccc34)CC1)CCC[C@H]2O` [Paliperidone (Invega)] was -0.551.
On the same count and under the same terms, the value for `CCCCNc1cc(C(=O)O)cc(S(N)(=O)=O)c1Oc1ccccc1` [Bumetanide] was 0.453; that for `CS(=O)(=O)N1CCc2c(-c3cnc(N)nc3)nc(N3CCOCC3)nc21` was -0.0136; that for `COc1ccc(NS(=O)(=O)c2ccc(N)cc2)nn1` [Sulfamethoxypyridazine] was -0.0136.
Molecule `CC[C@H](NC(=O)[C@H](C)NC)C(=O)N1C[C@@H](O)C[C@H]1Cc1c(-c2[nH]c3cc(F)ccc3c2C[C@@H]2C[C@H](O)CN2C(=O)[C@H](CC)NC(=O)[C@H](C)NC)[nH]c2cc(F)ccc12` [Birinapant] came in with a Prob-Test of 0.137.
Still for that read-out and setting: the same measure for `Cc1cc(/N=N/c2ccc(S(=O)(=O)Nc3ccccn3)cc2)c(N)cc1O`: -0.00536; for `CNC(=O)c1ccc(N2C(=S)N(c3cnc(C#N)c(C(F)(F)F)c3)C(=O)C23CCC3)cc1F`: -0.448.
Same read-out and setting: the value for `Cc1ccc(C)c(OCCCC(C)(C)C(=O)O)c1` [Gemfibrozil] was -0.376.
The same measure, in the same setting: the same measure for `Oc1nc(-c2ccc(C(F)(F)F)cc2)nc2c1CSCC2`: -0.609; for `CC(=O)[C@@H]1CC[C@H]2[C@@H]3CC=C4C[C@@H](O)CC[C@]4(C)[C@@H]3CC[C@]12C` [Pregnenolone]: -1.53; for `CN1CCC(=C2c3ccccc3CC(=O)c3sccc32)CC1.O=C(O)/C=C/C(=O)O` [Ketotifen Fumarate]: -0.319.
`C[C@]12C=CC(=O)N[C@@H]1CC[C@@H]1[C@H]2CC[C@]2(C)[C@H](C(=O)Nc3cc(C(F)(F)F)ccc3C(F)(F)F)CC[C@@H]12` [Dutasteride] came in with a Prob-Test of -0.169.
`C#C[C@@]1(O)CC[C@H]2[C@@H]3CCc4cc(O)ccc4[C@@H]3CC[C@@]21C` [Ethinyl Estradiol] registered a Prob-Test of -0.227.
Still for that read-out and setting: the value for `O=c1cc(N2CCOCC2)oc2c1ccc1ccccc12` was 0.223; that for `COc1cccc(-c2cc(=O)c3ccccc3o2)c1N` was -1.13.
Same read-out and setting: the value for `C[C@@H]1C[C@H]2[C@@H]3CCC4=CC(=O)C=C[C@]4(C)[C@]3(F)[C@H](O)C[C@]2(C)[C@]1(O)C(=O)CO` [Dexamethasone (DHAP)] was 0.308; that for `CCNC(=O)[C@H]1O[C@@H](n2cnc3c(N)nc(NCCc4ccc(CCC(=O)O)cc4)nc32)[C@@H](O)[C@@H]1O.Cl` was 0.0319.
Still for that read-out and setting: the value for `C[C@@H]1O[C@@H](OC[C@H]2O[C@@H](Oc3c(-c4ccc(O)c(O)c4)oc4cc(O)cc(O)c4c3=O)[C@@H](O)[C@@H](O)[C@@H]2O)[C@@H](O)[C@H](O)[C@H]1O` [Rutin] was 0.0947.
As to `OCC(CO)N[C@H]1C[C@@](O)(CO)[C@@H](O)[C@H](O)[C@H]1O` [Voglibose], the Prob-Test stood at 0.127.
Still for that read-out and setting: the value for `CC(C)Cn1cnc2c(N)nc3ccccc3c21` [Imiquimod] was 0.0358.
Consider `Cn1cc(C2=C(c3ccc(Cl)cc3Cl)C(=O)NC2=O)c2ccccc21`, for which the Prob-Test was -0.508.

The next assay has the same test system. Nature of the assay: Prob-Naive (SSMD vs DMSO vehicle); higher = higher than vehicle (e.g. higher dark-flash O-bend response probability, or better optomotor performance). To be noted: 10 µM; pre-incubation: 30-90 min.
Consider `CCc1cc(C(N)=S)ccn1` [Ethionamide], for which the Prob-Naive is 0.0311.
Still for that read-out and setting: the same measure for `COc1ccc(-c2oc3c(CC=C(C)C)c(OC4O[C@H](CO)[C@@H](O)[C@H](O)[C@H]4O)cc(O)c3c(=O)c2OC2O[C@@H](C)[C@H](O)[C@@H](O)[C@@H]2O)cc1` (stereo not given in full) [Icariin]: 0.584; for `CN(C)Cc1ccc(S(=O)(=O)n2ccc(/C=C/C(=O)NO)c2)cc1` [Resminostat]: 0.446.
Same read-out and setting: the same measure for `NC(=O)Nc1sc(-c2ccc(F)cc2)cc1C(N)=O`: -0.137; for `CC(=O)/N=c1\sc(S(N)(=O)=O)nn1C` [Methazolamide]: 0.302; for `CC(C)c1ccccc1Cc1cc(C(=O)Nc2ccc(S(=O)(=O)c3ccccc3C(C)(C)C)cc2)c(O)c(O)c1O`: -0.0443.
`COc1ccc([C@@H]2CC(=O)c3c(O)cc(O[C@@H]4O[C@H](CO[C@@H]5O[C@@H](C)[C@H](O)[C@H](O)[C@H]5O)[C@@H](O)[C@H](O)[C@H]4O)cc3O2)cc1O` [Hesperidin] displayed a Prob-Naive of -0.534.
The same measure, in the same setting: the same measure for `O=C(CCCCCN1C(=O)c2cccc3cccc(c23)C1=O)NO` [Scriptaid]: 0.245; for `CC(=O)SCC(Cc1ccccc1)C(=O)NCC(=O)OCc1ccccc1` (stereo not given) [Racecadotril]: -0.643.
Still for that read-out and setting: the same measure for `COc1ccccc1OCC(O)CN1CCN(CC(=O)Nc2c(C)cccc2C)CC1.Cl.Cl` (stereo not given) [Ranolazine 2HCl]: 0.42; for `O=C([O-])c1ccccc1[O-].[Bi+3].[OH-]` [Bismuth Subsalicylate]: 0.13; for `Nc1ccn([C@@H]2CS[C@H](CO)O2)c(=O)n1` [Lamivudine]: 0.096.
For `O=C(O)CCCc1c[nH]c2ccccc12` [3-Indolebutyric acid (IBA)], the Prob-Naive turned out to be 0.517.
Still for that read-out and setting: the same measure for `CC(C)(C(=O)O)c1ccc(C(O)CCCN2CCC(C(O)(c3ccccc3)c3ccccc3)CC2)cc1.Cl` (stereo not given) [Fexofenadine HCl]: -0.779.
With `CN(C)CC/C=C1\c2ccccc2Sc2ccc(Cl)cc21` [Chlorprothixene], the Prob-Naive came out at 0.252.
On the same count and under the same terms, the value for `[I-].[K+]` [Potassium Iodide] was 0.0825.
Still for that read-out and setting: the value for `CN1CCCC1c1cccnc1.O=C(O)C(O)C(O)C(=O)O.O=C(O)C(O)C(O)C(=O)O` (stereo not given) [Nicotine Ditartrate] was -0.456; that for `CN(C)c1cc(NC(=O)CNC(C)(C)C)c(O)c2c1C[C@H]1C[C@H]3[C@@H](N(C)C)C(O)=C(C(N)=O)C(=O)[C@@]3(O)C(O)=C1C2=O` [Tigecycline] was 0.748.
`CC(c1cc2ccccc2s1)N(O)C(N)=O` (stereo not given) [Zileuton] returned a Prob-Naive of -0.235.
Molecule `Cc1nc2n(c(=O)c1CCN1CCC(c3noc4cc(F)ccc34)CC1)CCC[C@H]2O` [Paliperidone (Invega)] registered a Prob-Naive of -0.148.
On the same count and under the same terms, the same measure for `CCCCNc1cc(C(=O)O)cc(S(N)(=O)=O)c1Oc1ccccc1` [Bumetanide]: -0.395.
On the same count and under the same terms, the value for `CS(=O)(=O)N1CCc2c(-c3cnc(N)nc3)nc(N3CCOCC3)nc21` was 0.285.
On the same count and under the same terms, the same measure for `COc1ccc(NS(=O)(=O)c2ccc(N)cc2)nn1` [Sulfamethoxypyridazine]: 0.448; for `CC[C@H](NC(=O)[C@H](C)NC)C(=O)N1C[C@@H](O)C[C@H]1Cc1c(-c2[nH]c3cc(F)ccc3c2C[C@@H]2C[C@H](O)CN2C(=O)[C@H](CC)NC(=O)[C@H](C)NC)[nH]c2cc(F)ccc12` [Birinapant]: 0.489.
As for `Cc1cc(/N=N/c2ccc(S(=O)(=O)Nc3ccccn3)cc2)c(N)cc1O`, the Prob-Naive stood at 0.146.
For the molecule `CNC(=O)c1ccc(N2C(=S)N(c3cnc(C#N)c(C(F)(F)F)c3)C(=O)C23CCC3)cc1F`, the Prob-Naive came out at 0.287.
Same read-out and setting: the value for `Cc1ccc(C)c(OCCCC(C)(C)C(=O)O)c1` [Gemfibrozil] was -2.21; that for `Oc1nc(-c2ccc(C(F)(F)F)cc2)nc2c1CSCC2` was -1.1.
Still for that read-out and setting: the same measure for `CC(=O)[C@@H]1CC[C@H]2[C@@H]3CC=C4C[C@@H](O)CC[C@]4(C)[C@@H]3CC[C@]12C` [Pregnenolone]: -0.161; for `CN1CCC(=C2c3ccccc3CC(=O)c3sccc32)CC1.O=C(O)/C=C/C(=O)O` [Ketotifen Fumarate]: -0.027.
Take `C[C@]12C=CC(=O)N[C@@H]1CC[C@@H]1[C@H]2CC[C@]2(C)[C@H](C(=O)Nc3cc(C(F)(F)F)ccc3C(F)(F)F)CC[C@@H]12` [Dutasteride]: the Prob-Naive was -0.134.
Same read-out and setting: the same measure for `C#C[C@@]1(O)CC[C@H]2[C@@H]3CCc4cc(O)ccc4[C@@H]3CC[C@@]21C` [Ethinyl Estradiol]: -1.09; for `O=c1cc(N2CCOCC2)oc2c1ccc1ccccc12`: 0.538.
In turn, `COc1cccc(-c2cc(=O)c3ccccc3o2)c1N` gave a Prob-Naive of -0.297.
Same read-out and setting: the value for `C[C@@H]1C[C@H]2[C@@H]3CCC4=CC(=O)C=C[C@]4(C)[C@]3(F)[C@H](O)C[C@]2(C)[C@]1(O)C(=O)CO` [Dexamethasone (DHAP)] was -0.372.
Same read-out and setting: the same measure for `CCNC(=O)[C@H]1O[C@@H](n2cnc3c(N)nc(NCCc4ccc(CCC(=O)O)cc4)nc32)[C@@H](O)[C@@H]1O.Cl`: 0.0613.

These data come from the supplement of paper PMC10727501.
